{"source": "patent US20110281834A1", "about": "“Pharmaceutical Formulations for Iontophoretic Delivery of a Corticosteroid” (priority 2008, published 2011)", "key": {"[1]": {"assay": "Iontophoretic drug permeation through hairless rat skin in Franz diffusion cells", "type": "in vitro ADME", "details": "25 mg/mL, pH 7.4; cathodal 0.4 mA/cm^2 for 30 min, 1 hr or 4 hr; FIG. 3", "description": "Full thickness abdominal skin freshly excised from sacrificed hairless rats was equilibrated in the receptor buffer and mounted on Franz diffusion cells (0.64 cm^2). The donor compartment (0.5 ml) contained corticosteroid in an appropriate buffer. […] For triamcinolone acetonide (TMCA), 3.5 mg/mL TMCA formulation (in 25% w/w PEG 400, 25% ETOH, 15% cremophor RH40, qs to 100% with citrate buffer pH 5.0) was used for the donor compartment. […] The receptor compartment for TMCA was citrate buffer with 20% ethanol. […] TMCA has no charge at pH 5 and was therefore delivered by anodal iontophoresis to utilize electroosmosis. […] For TMCA, the anode (Silver-Silver Chloride) was placed in the donor chamber along with drug solution and the cathode (Silver wire) was placed in the receptor chamber. Electric current (0.2 to 0.4 mA/cm^2) was applied using a custom current control device for up to 1 hr, after which experiments were either terminated or allowed to continue passively for various durations. […] The samples were then analyzed by HPLC to measure drug permeation through skin. […] For TMCA, samples of receptor fluid (injection volume 20 uL, run time 8 min) were analyzed using the same HPLC system with a flow rate of 0.8 ml/min and UV detection at 237 nm. […] Data were expressed as means±standard deviations. […]\nSamples were removed periodically from the receptor and analyzed by HPLC."}, "[2]": {"assay": "In vivo skin delivery: tape stripping (stratum corneum) and skin extraction (underlying skin)", "details": "hairless, rat, other: cathodal iontophoresis through abdominal skin, 300 uL, ITP treated group, 0.2 mA/cm^2 for 60 minutes, read-out: drug concentration attained in the skin (stratum corneum and underlying skin)", "description": "After wiping excess drug off the skin using a moist kimwipe, pre-weighed tape strips were placed on the area exposed to the drug and made sure they adhered to the skin by rolling with a glass rod for 30 seconds. After rolling, the tape strips were held from one end with a pair of forceps and ripped off the skin very quickly. The first strip was discarded to remove the remnants of the drug on the skin. This process was continued with 30 strips to fully remove the stratum corneum and each strip analyzed for drug content by immersing in 1 mL extraction buffer for 1 hr under gentle stirring (150 rpm). […] All tape strip extracts were analyzed with HPLC. […] TEWL values were also recorded after every five strips.\nAfter tape stripping, the rats were euthanized and the underlying skin excised. Before proceeding for skin extraction studies, the weight of the excised skin piece was recorded. This excised skin was minced into small pieces and placed into glass vials. To this minced skin, 1 mL deionised water was added and shaken for 30 minutes on a shaker. To this 100 μL of 0.1% HCl was added and centrifuged. To the centrifuged sample 6 mL of methylene chloride was added and shaken for 30 minutes. […] After evaporation, the samples were reconstituted using 1 mL of acetonitrile, filtered and filled in HPLC vials and analyzed accordingly. […] The measured drug levels from the skin were corrected for recovery. […]"}}, "data": [{"smiles": "C[C@@H]1C[C@H]2[C@@H]3CCC4=CC(=O)C=C[C@]4(C)[C@@]3(F)[C@@H](O)C[C@]2(C)[C@@]1(O)C(=O)COP(=O)(O)O", "note": "[DEX, dexamethasone sodium phosphate]", "values": [{"measurement": "permeation over time, all iontophoresis durations vs passive", "setting": "[1]", "value": "higher permeation over time compared to passive treatment"}, {"measurement": "concentration at 60 min", "setting": "[2]", "value": "80.9 ± 19.4", "unit": "µM"}]}]}
